Our source for the binding values is paper PMC1868949.

Chains of the proteins cited; added tags and fusions are not shown. Lines headed by an entry give the natural chain unless they say otherwise; changes in a name come on top. Residues count along the entry.
UniProt Q8BMJ8: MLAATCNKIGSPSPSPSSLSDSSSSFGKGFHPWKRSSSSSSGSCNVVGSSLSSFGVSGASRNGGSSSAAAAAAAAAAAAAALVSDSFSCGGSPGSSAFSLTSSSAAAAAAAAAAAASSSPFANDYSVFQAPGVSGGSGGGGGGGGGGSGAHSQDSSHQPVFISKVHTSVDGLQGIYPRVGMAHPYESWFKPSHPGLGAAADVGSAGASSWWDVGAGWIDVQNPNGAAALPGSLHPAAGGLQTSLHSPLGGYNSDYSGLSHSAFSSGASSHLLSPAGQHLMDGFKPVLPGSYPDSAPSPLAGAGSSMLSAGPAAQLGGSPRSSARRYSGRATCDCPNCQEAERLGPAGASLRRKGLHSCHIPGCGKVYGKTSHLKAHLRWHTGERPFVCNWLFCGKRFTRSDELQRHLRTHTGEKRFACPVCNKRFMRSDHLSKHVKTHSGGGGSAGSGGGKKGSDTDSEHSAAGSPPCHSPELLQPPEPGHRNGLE
GST-Sp8 lacking zinc fingers (GST-Sp8ΔZn): residues 1-355 of Q8BMJ8

No constants are given. Whether binding was seen depends on the method and setting. Binding seen in cells or lysates may run through a third protein. Some entries that bind do so weakly or less than the wild type.

The target in assay [1] is GST-Sp8 (GST-Sp8FL) (mouse) (UniProt Q8BMJ8). Nature of the assay: pull-down; GST or GST-Sp8 proteins held on glutathione-sepharose beads; incubated with [35S]-methionine-labelled in vitro translated Emx2 proteins in 0.4 ml binding buffer (0.1 M NaCl, 0.01% NP-40), 2 hours at 4°C; five washes; 15% SDS-PAGE and autoradiography; only the target purified.
For assay [2], the target named is GST-Sp8 lacking zinc fingers (GST-Sp8ΔZn) (mouse) (UniProt Q8BMJ8). The assay is described as above.

In the case of “Full-length Emx2 protein (Emx2FL) (from UniProt Q04744 1-253)”, the binding entry in assay [1] and in assay [2] was “binds” each time.

B1: Emx2 lacking the homeobox (Emx2ΔHox) (domain or fragment, UniProt Q04744 1-144)
chain: MFQPAPKRCFTIESLVAKDSPLPASRSEDPIRPAALSYANSSPINPFLNGFHSAAAAAAAGRGVYSNPDLVFAEAVSHPPNPAVPVHPVPPPHALAAHPLPSSHSPHPLFASQQRDPSTFYPWLIHRYRYLGHRFQGNDTSPES
modifications: [35S]-methionine labelled
On to B1, for which the binding result in assay [1] and in assay [2] was “no binding” throughout.
